Measured values as given in PMC1540706.

Sequences of proteins named here, by UniProt entry; tags and fusion partners are left off. Residues count along the entry.
UniProt P63010, residues 700-937: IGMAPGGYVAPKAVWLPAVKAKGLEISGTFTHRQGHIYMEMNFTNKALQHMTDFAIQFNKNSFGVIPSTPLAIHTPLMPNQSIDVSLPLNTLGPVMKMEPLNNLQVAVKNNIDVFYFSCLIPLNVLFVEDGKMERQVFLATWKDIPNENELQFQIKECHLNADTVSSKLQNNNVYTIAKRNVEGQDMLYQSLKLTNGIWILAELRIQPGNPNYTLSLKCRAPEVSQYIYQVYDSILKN

B1: HivRevBP (protein, UniProt P52594-1 1-562)
chain: MAASAKRKQEEKHLKMLRDMTGLPHNRKCFDCDQRGPTYVNMTVGSFVCTSCSGSLRGLNPPHRVKSISMTTFTQQEIEFLQKHGNEVCKQIWLGLFDDRSSAIPDFRDPQKVKEFLQEKYEKKRWYVPPEQAKVVASVHASISGSSASSTSSTPEVKPLKSLLGDSAPTLHLNKGTPSQSPVVGRSQGQQQEKKQFDLLSDLGSDIFAAPAPQSTATANFANFAHFNSHAAQNSANADFANFDAFGQSSGSSNFGGFPTASHSPFQPQTTGGSAASVNANFAHFDNFPKSSSADFGTFNTSQSHQTASAVSKVSTNKAGLQTADKYAALANLDNIFSAGQGGDQGSGFGTTGKAPVGSVVSVPSQSSASSDKYAALAELDSVFSSAATSSNAYTSTSNASSNVFGTVPVVASAQTQPASSSVPAPFGATPSTNPFVAAAGPSVASSTNPFQTNARGATAATFGTASMSMPTGFGTPAPYSLPTSFSGSFQQPAFPAQAAFPQQTAFSQQPNGAGFAAFGQTKPVVTPFGQVAAAGVSSNPFMTGAPTGQFPTGSSSTNPFL
B2: aftiphilin (protein, UniProt Q6ULP2 1-936)
chain: MEPDIIRMYSSSPPPLDNGAEDDDDDEFGEFGGFSEVSPSGVGFVDFDTPDYTRPKEEFVPSNHFMPIHEFSENVDSLTSFKSIKNGNDKDITAELSAPVKGQSDVLLSTTSKEIISSEMLATSIDGMERPGNLNKVVEQRQNVGTLESFSPGDFRTNMNVVHQNKQLESCNGEKPPCLEILTNGFAVLETVNPQGTDDLDNVADSKGRKPLSTHSTEYNLDSVPSPAEEFADFATFSKKERIQLEEIECAVLNDREALTIRENNKINRVNELNSVKEVALGRSLDNKGDTDGEDQVCVSEISIVTNRGFSVEKQGLPTLQQDEFLQSGVQSKAWSLVDSADNSEAIRREQCKTEEKLDLLTSKCAHLCMDSVKTSDDEVGSPKEESRKFTNFQSPNIDPTEENDLDDSLSVKNGDSSNDFVTCNDINEDDFGDFGDFGSASGSTPPFVTGTQDSMSDATFEESSEHFPHFSEPGDDFGEFGDINAVSCQEETILTKSDLKQTSDNLSEECQLARKSSGTGTEPVAKLKNGQEGEIGHFDSVPNIQDDCNGFQDSDDFADFSSAGPSQVVDWNAFEDEQKDSCSWAAFGDQQATESHHRKEAWQSHRTDENIDTPGTPKTHSVPSATSKGAVASGHLQESATSVQTALLNRLERIFEACFPSILVPDAEEEVTSLKHLLETSTLPIKTREALPESGELLDVWTELQDIHDAHGLRYQWGGSHSNKKLLSSLGIDTRNILFTGNKKQPVIVPMYAAGLGMLEPTKEPLKPLSAAEKIASIGQTATMSPDMNTCTSDQFQESLPPVQFDWSSSGLTNPLDASGGSTLLNLDFFGPVDDSSSSSSTTIPGVDPELYELTTSKLEISTSSLKVTDAFARLMSTVEKTSTSTRKPKREEHLSEEAIKVIAGLPDLTFMHAKVLMFPATLTPSTSSQEKADG
B3: γ-synergin (protein, UniProt Q9UMZ2 1-1314)
chain: MALRPGAGSGGGGAAGAGAGSAGGGGFMFPVAGGIRPPQAGLMPMQQQGFPMVSVMQPNMQGIMGMNYSSQMSQGPIAMQAGIPMGPMPAAGMPYLGQAPFLGMRPPGPQYTPDMQKQFAEEQQKRFEQQQKLLEEERKRRQFEEQKQKLRLLSSVKPKTGEKSRDDALEAIKGNLDGFSRDAKMHPTPASHPKKPGPSLEEKFLVSCDISTSGQEQIKLNTSEVGHKALGPGSSKKYPSLMASNGVAVDGCVSGTTTAEAENTSDQNLSIEESGVGVFPSQDPAQPRMPPWIYNESLVPDAYKKILETTMTPTGIDTAKLYPILMSSGLPRETLGQIWALANRTTPGKLTKEELYTVLAMIAVTQRGVPAMSPDALNQFPAAPIPTLSGFSMTLPTPVSQPTVIPSGPAGSMPLSLGQPVMGINLVGPVGGAAAQASSGFIPTYPANQVVKPEEDDFQDFQDASKSGSLDDSFSDFQELPASSKTSNSQHGNSAPSLLMPLPGTKALPSMDKYAVFKGIAADKSSENTVPPGDPGDKYSAFRELEQTAENKPLGESFAEFRSAGTDDGFTDFKTADSVSPLEPPTKDKTFPPSFPSGTIQQKQQTQVKNPLNLADLDMFSSVNCSSEKPLSFSAVFSTSKSVSTPQSTGSAATMTALAATKTSSLADDFGEFSLFGEYSGLAPVGEQDDFADFMAFSNSSISSEQKPDDKYDALKEEASPVPLTSNVGSTVKGGQNSTAASTKYDVFRQLSLEGSGLGVEDLKDNTPSGKSDDDFADFHSSKFSSINSDKSLGEKAVAFRHTKEDSASVKSLDLPSIGGSSVGKEDSEDALSVQFDMKLADVGGDLKHVMSDSSLDLPTVSGQHPPAADIEDLKYAAFGSYSSNFAVSTLTSYDWSDRDDATQGRKLSPFVLSAGSGSPSATSILQKKETSFGSSENITMTSLSKVTTFVSEDALPETTFPALASFKDTIPQTSEQKEYENRDYKDFTKQDLPTAERSQEATCPSPASSGASQETPNECSDDFGEFQSEKPKISKFDFLVATSQSKMKSSEEMIKSELATFDLSVQGSHKRSLSLGDKEISRSSPSPALEQPFRDRSNTLNEKPALPVIRDKYKDLTGEVEENERYAYEWQRCLGSALNVIKKANDTLNGISSSSVCTEVIQSAQGMEYLLGVVEVYRVTKRVELGIKATAVCSEKLQQLLKDIDKVWNNLIGFMSLATLTPDENSLDFSSCMLRPGIKNAQELACGVCLLNVDSRSRKEEKPAEEHPKKAFNSETDSFKLAYGGHQYHASCANFWINCVEPKPPGLVLPDLL
B4: KIAA1558 (protein, UniProt Q5H9R7 1-873)
chain: MFWKFDLHSSSHIDTLLEREDVTLKELMDEEDVLQECKAQNRKLIEFLLKAECLEDLVSFIIEEPPQDMDEKIRYKYPNISCELLTSDVSQMNDRLGEDESLLMKLYSFLLNDSPLNPLLASFFSKVLSILISRKPEQIVDFLKKKHDFVDLIIKHIGTSAIMDLLLRLLTCIEPPQPRQDVLNWLNEEKIIQRLVEIVHPSQEEDRHSNASQSLCEIVRLSRDQMLQIQNSTEPDPLLATLEKQEIIEQLLSNIFHKEKNESAIVSAIQILLTLLETRRPTFEGHIEICPPGMSHSACSVNKSVLEAIRGRLGSFHELLLEPPKKSVMKTTWGVLDPPVGNTRLNVIRLISSLLQTNTSSINGDLMELNSIGVILNMFFKYTWNNFLHTQVEICIALILASPFENTENATITDQDSTGDNLLLKHLFQKCQLIERILEAWEMNEKKQAEGGRRHGYMGHLTRIANCIVHSTDKGPNSALVQQLIKDLPDEVRERWETFCTSSLGETNKRNTVDLVTTCHIHSSSDDEIDFKETGFSQDSSLQQAFSDYQMQQMTSNFIDQFGFNDEKFADQDDIGNVSFDRVSDINFTLNTNESGNIALFEACCKERIQQFDDGGSDEEDIWEEKHIAFTPESQRRSSSGSTDSEESTDSEEEDGAKQDLFEPSSANTEDKMEVDLSEPPNWSANFDVPMETTHGAPLDSVGSDVWSTEEPMPTKETGWASFSEFTSSLSTKDSLRSNSPVEMETSTEPMDPLTPSAAALAVQPEAAGSVAMEASSDGEEDAESTDKVTETVMNGGMKETLSLTVDAKTETAVFKSEEGKLSTSQDAACKDAEECPETAEAKCAAPRPPSSSPEQRTGQPSAPGDTSVNGPV
B5: KIAA1219 (protein, UniProt Q86X10 1-1494)
chain: MYSEWRSLHLVIQNDQGHTSVLHSYPESVGREVANAVVRPLGQVLGTPSVAGSENLLKTDKEVKWTMEVICYGLTLPLDGETVKYCVDVYTDWIMALVLPKDSIPLPVIKEPNQYVQTILKHLQNLFVPRQEQGSSQIRLCLQVLRAIQKLARESSLMARETWEVLLLFLLQINDILLAPPTVQGGIAENLAEKLIGVLFEVWLLACTRCFPTPPYWKTAKEMVANWRHHPAVVEQWSKVICALTSRLLRFTYGPSFPAFKVPDEDASLIPPEMDNECVAQTWFRFLHMLSNPVDLSNPAIISSTPKFQEQFLNVSGMPQELNQYPCLKHLPQIFFRAMRGISCLVDAFLGISRPRSDSAPPTPVNRLSMPQSAAVSTTPPHNRRHRAVTVNKATMKTSTVSTAHASKVQHQTSSTSPLSSPNQTSSEPRPLPAPRRPKVNSILNLFGSWLFDAAFVHCKLHNGINRDSSMTAITTQASMEFRRKGSQMSTDTMVSNPMFDASEFPDNYEAGRAEACGTLCRIFCSKKTGEEILPAYLSRFYMLLIQGLQINDYVCHPVLASVILNSPPLFCCDLKGIDVVVPYFISALETILPDRELSKFKSYVNPTELRRSSINILLSLLPLPHHFGTVKSEVVLEGKFSNDDSSSYDKPITFLSLKLRLVNILIGALQTETDPNNTQMILGAMLNIVQDSALLEAIGCQMEMGGGENNLKSHSRTNSGISSASGGSTEPTTPDSERPAQALLRDYALNTDSAAGLLIRSIHLVTQRLNSQWRQDMSISLAALELLSGLAKVKVMVDSGDRKRAISSVCTYIVYQCSRPAPLHSRDLHSMIVAAFQCLCVWLTEHPDMLDEKDCLKEVLEIVELGISGSKSKNNEQEVKYKGDKEPNPASMRVKDAAEATLTCIMQLLGAFPSPSGPASPCSLVNETTLIKYSRLPTINKHSFRYFVLDNSVILAMLEQPLGNEQNDFFPSVTVLVRGMSGRLAWAQQLCLLPRGAKANQKLFVPEPRPVPKNDVGFKYSVKHRPFPEEVDKIPFVKADLSIPDLHEIVTEELEERHEKLRSGMAQQIAYEIHLEQQSEEELQKRSFPDPVTDCKPPPPAQEFQTARLFLSHFGFLSLEALKEPANSRLPPHLIALDSTIPGFFDDIGYLDLLPCRPFDTVFIFYMKPGQKTNQEILKNVESSRTVQPHFLEFLLSLGWSVDVGRHPGWTGHVSTSWSINCCDDGEGSQQEVISSEDIGASIFNGQKKVLYYADALTEIAFVVPSPVESLTDSLESNISDQDSDSNMDLMPGILKQPSLTLELFPNHTDNLNSSQRLSPSSRMRKLPQGRPVPPLGPETRVSVVWVERYDDIENFPLSELMTEISTGVETTANSSTSLRSTTLEKEVPVIFIHPLNTGLFRIKIQGATGKFNMVIPLVDGMIVSRRALGFLVRQTVINICRRKRLESDSYSPPHVRRKQKITDIVNKYRNKQLEPEFYTSLFQEVGLKNCSS
B6: RalBP1 (protein, UniProt Q96D71 1-796)
chain: MEGLTLSDAEQKYYSDLFSYCDIESTKKVVVNGRVLELFRAAQLPNDVVLQIMELCGATRLGYFGRSQFYIALKLVAVAQSGFPLRVESINTVKDLPLPRFVASKNEQESRHAASYSSDSENQGSYSGVIPPPPGRGQVKKGSVSHDTVQPRTSADAQEPASPVVSPQQSPPTSPHTWRKHSRHPSGGNSERPLAGPGPFWSPFGEAQSGSSAGDAVWSGHSPPPPQENWVSFADTPPTSTLLTMHPASVQDQTTVRTVASATTAIEIRRQSSSYDDPWKITDEQRQYYVNQFKTIQPDLNGFIPGSAAKEFFTKSKLPILELSHIWELSDFDKDGALTLDEFCAAFHLVVARKNGYDLPEKLPESLMPKLIDLEDSADVGDQPGEVGYSGSPAEAPPSKSPSMPSLNQTWPELNQSSEQWETFSERSSSSQTLTQFDSNIAPADPDTAIVHPVPIRMTPSKIHMQEMELKRTGSDHTNPTSPLLVKPSDLLEENKINSSVKFASGNTVADGYSSSDSFTSDPEQIGSNVTRQRSHSGTSPDNTAPPPPPPRPQPSHSRSSSLDMNRTFTVTTGQQQAGVVAHPPAVPPRPQPSQAPGPAVHRPVDADGLITHTSTSPQQIPEQPNFADFSQFEVFAASNVNDEQDDEAEKHPEVLPAEKASDPASSLRVAKTDSKTEEKTAASAPANVSKGTTPLAPPPKPVRRRLKSEDELRPEVDEHTQKTGVLAAVLASQPSIPRSVGKDKKAIQASIRRNKETNTVLARLNSELQQQLKDVLEERISLEVQLEQLRPFSHL

Biological target: GST-human-β2-appendage (700–937) (human) (UniProt P63010)
Assay: affinity purification with mass spectrometry; 30–100 μg GST-appendage on glutathione-sepharose beads in HeLa cell extract (150 mM NaCl, 20 mM HEPES pH 7.4, 2 mM DTT, NP40, 0.1% Tx-100), 1 h at 4 °C, 4 washes; Coomassie bands read by LC-MS/MS; only the target purified

| binding | Binder |
| --- | --- |
| binds | B1 |
| binds | B2 |
| binds | B3 |
| binds | B4 |
| binds | B5 |
| binds | B6 |

These are yes or no findings as the source states them, for the method shown. In cells and extracts the contact can be indirect. A yes stands for co-enrichment or nearness to the bait. Other partners may have been found.
